Some results were stated once for a whole list of compounds, not compound by compound.
Target: T1, human MCR1 receptor (Homo sapiens, UniProt Q01726)
T1 construct: expressed in transfected cells
Assay: MCR1 standard functional assay (Protocol A): cAMP AlphaScreen in HEK cells
Assay type: cell-based
Conditions: functional potencies, Protocols A and C or E
Procedure: Stimulation of adenylate cyclase following receptor activation is a widely used measure of functional activity for a number of receptor systems. The functional assay to measure cyclic AMP (cAMP) utilises human embryonic kidney (HEK) cells that stably express the human melanocortin MCR1, MCR3 or MCR4 receptor. Activation of MCR1, MCR3 or MCR4 receptors stimulates adenylate cyclase, generating cAMP, which is measured using AlphaScreen™ (PerkinElmer assay kits.
The AlphaScreen™ cAMP assay kit consists of ‘donor beads’, ‘acceptor beads’, and biotinylated cAMP which links the different beads together. Excitation of this linked complex at […] in the Fusion™-α microplate analyser results in light emission between […].
(i) MCR1. MCR3 and MCR4 Standard Functional Assay Methodology [Assay Protocol A, B AND C Respectively]
Determination of activity against the human MCR1, MCR3 and MCR4 receptor subtypes was carried out for compounds according to the present invention using three immortalised human embryonic kidney (HEK) cell lines that had been biologically engineered to express the human melanocortin MCR1, MCR3 or MCR4 receptor subtypes. […]
Such-compound-induced activation of these MCR1, MCR3 or MCR4 receptors lead to the stimulation of the cellular enzyme adenylate cyclase, which in turn lead to the cellular generation, and intra-cellular accumulation, of cyclic adenosine monophosphate (cAMP). […] Intracellular levels of cAMP were quantified using the commercially available AlphaScreen™ assay kits from PerkinElmer. […]
The quantity of intracellular cAMP produced by compound-induced activation of the MCR1, MCR3 and MCR4 receptors in these three cell lines was measured using a Fusion™-α microplate analyser set to stimulate at a wavelength of 680 nm and to measure the energy emitted at wave lengths between […]. Compound-induced increases in MCR1, MCR3 or MCR4 receptor activation were subsequently quantified as a decrease in the quantity of light emitted at wavelengths between 520-620 nM. […]

Chains of the proteins cited; added tags and fusions are not shown. Lines headed by an entry give the natural chain unless they say otherwise; changes in a name come on top.
UniProt Q01726: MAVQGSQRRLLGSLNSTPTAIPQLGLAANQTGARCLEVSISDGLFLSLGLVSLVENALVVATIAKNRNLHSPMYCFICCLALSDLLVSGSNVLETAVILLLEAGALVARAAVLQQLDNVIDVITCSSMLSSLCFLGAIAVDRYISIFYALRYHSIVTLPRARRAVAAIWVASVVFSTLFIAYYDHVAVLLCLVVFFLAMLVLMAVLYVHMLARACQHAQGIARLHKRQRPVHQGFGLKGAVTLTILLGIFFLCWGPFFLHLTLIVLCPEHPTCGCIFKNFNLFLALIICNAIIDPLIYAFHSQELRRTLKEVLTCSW

CC(C)N1C[C@@H](C(=O)N2C[C@@H](C)[C@](O)(c3ccc(F)cc3)[C@@H](C)C2)[C@H](c2ccc(F)cc2F)C1.Cl [Example 10, (3R,4R,5S)-1-{[(3S,4R)-4-(2,4-difluorophenyl)-1-isopropylpyrrolidin-3-yl]carbonyl}-4-(4-fluorophenyl)-3,5-dimethylpiperidin-4-ol hydrochloride]
selectivity for MCR4 over MCR1: greater than 10 times

— US7649002B2, “(3,5-dimethylpiperidin-1yl)(4-phenylpyrrolidin-3-yl)methanone derivatives as MCR4 agonists” (Pfizer Inc, priority 2004, dated 2010)
